{"source": "PubChem BioAssay AID1259424 (University of Nebraska Medical Center, 2018)", "assay": "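Seek colon cancer survival genes behaving like KSR1, using a six-gene signature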 (primary screen)", "cells": "human HCT116 colon cancer cells", "reagent": "siRNA pool against human genes, 50 nM", "detection": "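Six signature mRNAs by branched-DNA multiplex assay, scaled to two housekeeping genes and non-targeting median, log2; matched to mean KSR1 knockdown profile by Pearson correlation and euclidean distance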", "scale": "mean correlation with KSR1 profile: higher = expression change more like KSR1 knockdown", "note": "In all, the deposit lists about 14,000 reagents; below is a part drawn at random. 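Higher correlation or smaller distance means closer resemblance to KSR1 loss; control wells, including KSR1 knockdowns, recur on many plates.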 Further read-outs or replicates are left out here. Reagent sequences are not shown. Not given: the time to read-out."}
{"gene knocked down": "TPT1P8", "mean correlation with KSR1 profile": -0.527}
{"gene knocked down": "SYCP3", "mean correlation with KSR1 profile": -0.179}
{"gene knocked down": "CYP1A2", "mean correlation with KSR1 profile": -0.567}
{"gene knocked down": "BCL2A1", "mean correlation with KSR1 profile": -0.233}
{"gene knocked down": "ACAP2", "mean correlation with KSR1 profile": -0.351}
{"gene knocked down": "TUBGCP4", "mean correlation with KSR1 profile": -0.0048}
{"gene knocked down": "MYB", "mean correlation with KSR1 profile": -0.107}
{"gene knocked down": "ZNF580", "mean correlation with KSR1 profile": -0.0679}
{"gene knocked down": "TWIST2", "mean correlation with KSR1 profile": 0.0679}
{"gene knocked down": "HAS2", "mean correlation with KSR1 profile": 0.79}
{"gene knocked down": "CRLF1", "mean correlation with KSR1 profile": -0.397}
{"gene knocked down": "STXBP2", "mean correlation with KSR1 profile": -0.466}
{"gene knocked down": "GPBP1L1", "mean correlation with KSR1 profile": -0.717}
{"gene knocked down": "MAGEA4", "mean correlation with KSR1 profile": -0.149}
{"gene knocked down": "KIF1A", "mean correlation with KSR1 profile": 0.0822}
{"gene knocked down": "TSPYL1", "mean correlation with KSR1 profile": 0.0231}

Single entries from the entries so far.
For “mean correlation with KSR1 profile”, GPBP1L1 has -0.717
For “mean correlation with KSR1 profile”, SYCP3 shows -0.179

Next entries follow.
{"gene knocked down": "WSCD2", "mean correlation with KSR1 profile": -0.123}
{"gene knocked down": "REG1B", "mean correlation with KSR1 profile": -0.692}
{"gene knocked down": "ZBTB20", "mean correlation with KSR1 profile": -0.226}
{"gene knocked down": "POMC", "mean correlation with KSR1 profile": 0.525}
{"gene knocked down": "SEMA3G", "mean correlation with KSR1 profile": -0.624}
{"gene knocked down": "CD84", "mean correlation with KSR1 profile": -0.218}
{"gene knocked down": "ADAMTSL2", "mean correlation with KSR1 profile": -0.303}
{"gene knocked down": "SF1", "mean correlation with KSR1 profile": 0.552}
{"gene knocked down": "ADAMTS14", "mean correlation with KSR1 profile": -0.533}
{"gene knocked down": "PLA2G2A", "mean correlation with KSR1 profile": -0.0111}
{"gene knocked down": "CD59", "mean correlation with KSR1 profile": -0.0438}
{"gene knocked down": "LCN2", "mean correlation with KSR1 profile": -0.693}
